Test results taken from patent US9617283B2, “Bicyclic heterocycle compounds and their uses in therapy” (ASTEX THERAPEUTICS LIMITED, priority 2012, dated 2017).
Structures can show the parent of a compound that is named as a salt. Some of these results come from one statement about several compounds together.

Sequences of proteins named here, by UniProt entry; tags and fusion partners are left off. Residues count along the entry.
UniProt Q13490, 267-363: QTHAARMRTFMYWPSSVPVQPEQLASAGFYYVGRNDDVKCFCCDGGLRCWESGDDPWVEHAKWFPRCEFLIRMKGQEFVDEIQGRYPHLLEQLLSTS

Target: T1, BIR3 domain of human cIAP-1 (residues 267-363) (Homo sapiens, UniProt Q13490)
T1 construct: human cIAP-1 (residues 267-363) fused to a GST-tag; GST-tag (cleaved yes); made in house; host or cells: Escherichia coli
Test: cIAP-1 in vitro competitive displacement binding assay (fluorescence polarization)
Conditions: or at least 50% inhibition of the activity at the stated concentration; read-out: IC50 in the cIAP1 assay

`COC[C@@H]1CN(C[C@H]2CN[C@H](C)CN2CC(=O)N2CC(C)(C)c3ncc(Cc4ccc(F)cc4)cc32)C(=O)CO1` [Example 102, (6S)-4-{[(2R,5R)-1-(2-{6-[(4-Fluorophenyl)methyl]-3,3-dimethyl-1H,2H,3H-pyrrolo[3,2-b]pyridin-1-yl}-2-oxoethyl)-5-methylpiperazin-2-yl]methyl}-6-(methoxymethyl)morpholin-3-one dihydrochloride] was tested, and the IC50 was < 100 nM.
